Article PMC3244432
No constants are given. Whether binding was seen depends on the method and setting. Binding seen in cells or lysates may run through a third protein. Some entries that bind do so weakly or less than the wild type.

Protein sequences, listed by entry. Tags and fused reporters are not part of them.
UniProt Q15691: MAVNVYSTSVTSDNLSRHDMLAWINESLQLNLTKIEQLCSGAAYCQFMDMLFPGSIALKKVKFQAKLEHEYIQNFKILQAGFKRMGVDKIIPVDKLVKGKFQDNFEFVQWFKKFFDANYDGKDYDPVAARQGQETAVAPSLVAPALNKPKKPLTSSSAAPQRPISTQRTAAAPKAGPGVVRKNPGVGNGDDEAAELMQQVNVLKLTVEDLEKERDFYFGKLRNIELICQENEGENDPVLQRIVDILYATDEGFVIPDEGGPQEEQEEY
UniProt Q9JK25: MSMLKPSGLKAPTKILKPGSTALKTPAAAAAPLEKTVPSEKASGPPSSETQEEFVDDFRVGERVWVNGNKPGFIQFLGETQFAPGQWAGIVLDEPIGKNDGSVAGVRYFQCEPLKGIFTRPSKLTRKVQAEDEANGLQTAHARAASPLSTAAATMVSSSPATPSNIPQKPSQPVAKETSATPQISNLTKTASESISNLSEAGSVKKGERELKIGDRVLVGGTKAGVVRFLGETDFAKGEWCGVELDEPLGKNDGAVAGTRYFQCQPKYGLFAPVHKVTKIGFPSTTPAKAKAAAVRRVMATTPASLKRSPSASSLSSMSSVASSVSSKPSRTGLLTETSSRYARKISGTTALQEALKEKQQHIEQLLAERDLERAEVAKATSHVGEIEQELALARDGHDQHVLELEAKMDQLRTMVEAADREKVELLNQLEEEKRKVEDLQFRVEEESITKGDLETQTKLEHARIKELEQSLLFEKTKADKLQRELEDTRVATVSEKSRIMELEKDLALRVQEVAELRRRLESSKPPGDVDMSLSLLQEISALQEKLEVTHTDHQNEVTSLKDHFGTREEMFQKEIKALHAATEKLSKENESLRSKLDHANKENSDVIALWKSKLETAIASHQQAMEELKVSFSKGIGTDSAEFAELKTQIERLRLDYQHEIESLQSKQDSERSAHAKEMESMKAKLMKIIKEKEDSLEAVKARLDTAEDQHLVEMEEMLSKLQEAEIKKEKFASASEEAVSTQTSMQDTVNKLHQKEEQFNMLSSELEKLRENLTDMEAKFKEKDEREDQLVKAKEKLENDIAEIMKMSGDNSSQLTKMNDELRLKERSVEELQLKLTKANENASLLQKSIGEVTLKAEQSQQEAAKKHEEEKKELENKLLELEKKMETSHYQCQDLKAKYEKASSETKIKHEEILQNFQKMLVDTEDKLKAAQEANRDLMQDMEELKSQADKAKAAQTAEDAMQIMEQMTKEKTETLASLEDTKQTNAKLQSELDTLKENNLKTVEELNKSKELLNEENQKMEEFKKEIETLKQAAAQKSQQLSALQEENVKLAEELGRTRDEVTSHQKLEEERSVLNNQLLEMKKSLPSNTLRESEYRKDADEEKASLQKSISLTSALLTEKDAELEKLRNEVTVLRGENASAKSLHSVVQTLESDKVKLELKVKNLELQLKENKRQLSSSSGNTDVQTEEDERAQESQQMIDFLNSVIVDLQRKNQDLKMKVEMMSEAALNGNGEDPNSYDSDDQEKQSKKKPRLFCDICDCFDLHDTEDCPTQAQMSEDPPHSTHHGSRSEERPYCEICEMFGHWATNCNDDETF

Molecular target: GST-EB1 (UniProt Q15691)
Assay: pull-down; GST-EB1 on glutathione-agarose beads pre-incubated with saturating amounts of antibody 1A11 or non-specific IgG 4 U, washed, then used in precipitations from NRK-52E cell extracts (or extracts of cells expressing GFP-APC-C3); SDS-PAGE and Western blotting; only the target purified

With CLIP-170 (from UniProt Q9JK25 1-1320) the binding was “binds”.
